Results are given in words; binding and its absence hold for the method and conditions named. Binding seen in cells or lysates may run through a third protein. Some binding calls cover weakened binding; strength is not graded here.
How the values were obtained:
[1] = biological target: myc-DDR1 (UniProt Q08345); assay: co-IP; HEK293T cells co-transfected with myc-DDR1 (or myc-DDR1-K618A) and flag-GRB2 (or flag-GRB2 with missing domains); Pierce Co-Immunoprecipitation Kit, then western blot
[2] = biological target: myc-DDR1-K618A (UniProt Q08345); assay: as above
[3] = biological target: Discoidin domain receptor 1 (DDR1), in cervical cancer cells (human (in SiHa cervical cancer cells; endogenous or oeDDR1 not stated)) (UniProt Q08345); assay: co-IP; SiHa cells; Pierce Co-Immunoprecipitation Kit, then western blot

Chains of the proteins cited; added tags and fusions are not shown. Lines headed by an entry give the natural chain unless they say otherwise; changes in a name come on top. A line that says so, or that is headed by a name, gives the form on record, which may keep a tag or linker. Residues count along the entry.
UniProt Q08345, residues 19-913: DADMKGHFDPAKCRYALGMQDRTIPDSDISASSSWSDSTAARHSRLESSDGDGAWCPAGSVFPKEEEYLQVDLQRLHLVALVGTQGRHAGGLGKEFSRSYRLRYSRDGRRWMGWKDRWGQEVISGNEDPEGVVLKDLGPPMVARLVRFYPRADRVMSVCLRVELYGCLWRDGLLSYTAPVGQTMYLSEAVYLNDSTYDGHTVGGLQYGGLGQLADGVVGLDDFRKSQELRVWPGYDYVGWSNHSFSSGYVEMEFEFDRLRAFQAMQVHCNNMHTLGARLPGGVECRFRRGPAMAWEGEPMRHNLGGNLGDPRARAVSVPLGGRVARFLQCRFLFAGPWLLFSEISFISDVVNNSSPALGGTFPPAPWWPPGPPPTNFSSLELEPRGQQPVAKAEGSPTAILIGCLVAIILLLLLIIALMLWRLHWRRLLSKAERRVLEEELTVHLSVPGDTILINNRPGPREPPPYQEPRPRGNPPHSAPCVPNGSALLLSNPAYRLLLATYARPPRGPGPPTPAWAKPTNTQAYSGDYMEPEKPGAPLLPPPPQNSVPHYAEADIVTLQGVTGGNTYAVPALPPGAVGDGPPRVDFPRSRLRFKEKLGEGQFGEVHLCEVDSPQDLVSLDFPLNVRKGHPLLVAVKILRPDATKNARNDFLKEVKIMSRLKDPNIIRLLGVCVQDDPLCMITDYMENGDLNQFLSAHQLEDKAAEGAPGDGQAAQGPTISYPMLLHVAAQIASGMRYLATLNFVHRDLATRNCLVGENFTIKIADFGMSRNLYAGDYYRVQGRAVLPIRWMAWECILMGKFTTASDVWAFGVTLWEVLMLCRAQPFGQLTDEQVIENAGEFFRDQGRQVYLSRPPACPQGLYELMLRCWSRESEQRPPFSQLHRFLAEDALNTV
myc-DDR1 (Q08345, form named): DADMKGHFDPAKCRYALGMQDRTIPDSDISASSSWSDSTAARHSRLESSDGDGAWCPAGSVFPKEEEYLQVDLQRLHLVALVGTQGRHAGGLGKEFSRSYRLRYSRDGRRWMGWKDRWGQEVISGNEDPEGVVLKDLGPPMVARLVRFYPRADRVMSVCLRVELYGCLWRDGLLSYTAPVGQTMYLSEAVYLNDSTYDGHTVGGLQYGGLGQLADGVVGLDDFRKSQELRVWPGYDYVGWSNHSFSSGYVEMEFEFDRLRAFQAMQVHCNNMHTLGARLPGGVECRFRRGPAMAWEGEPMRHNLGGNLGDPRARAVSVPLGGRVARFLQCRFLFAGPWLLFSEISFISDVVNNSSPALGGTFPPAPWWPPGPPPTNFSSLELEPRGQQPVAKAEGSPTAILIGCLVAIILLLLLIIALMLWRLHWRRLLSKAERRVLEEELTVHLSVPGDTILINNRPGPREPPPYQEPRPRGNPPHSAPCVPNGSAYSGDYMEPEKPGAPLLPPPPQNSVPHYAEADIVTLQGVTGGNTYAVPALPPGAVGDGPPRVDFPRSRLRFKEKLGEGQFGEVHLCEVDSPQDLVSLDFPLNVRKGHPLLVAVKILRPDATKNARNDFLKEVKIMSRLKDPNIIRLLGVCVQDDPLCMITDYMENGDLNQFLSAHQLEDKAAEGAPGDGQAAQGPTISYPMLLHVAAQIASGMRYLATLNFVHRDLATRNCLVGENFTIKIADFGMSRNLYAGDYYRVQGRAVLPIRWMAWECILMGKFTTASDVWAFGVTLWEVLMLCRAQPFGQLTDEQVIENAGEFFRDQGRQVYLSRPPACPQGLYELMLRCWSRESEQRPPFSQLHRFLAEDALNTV
myc-DDR1-K618A (Q08345, form named): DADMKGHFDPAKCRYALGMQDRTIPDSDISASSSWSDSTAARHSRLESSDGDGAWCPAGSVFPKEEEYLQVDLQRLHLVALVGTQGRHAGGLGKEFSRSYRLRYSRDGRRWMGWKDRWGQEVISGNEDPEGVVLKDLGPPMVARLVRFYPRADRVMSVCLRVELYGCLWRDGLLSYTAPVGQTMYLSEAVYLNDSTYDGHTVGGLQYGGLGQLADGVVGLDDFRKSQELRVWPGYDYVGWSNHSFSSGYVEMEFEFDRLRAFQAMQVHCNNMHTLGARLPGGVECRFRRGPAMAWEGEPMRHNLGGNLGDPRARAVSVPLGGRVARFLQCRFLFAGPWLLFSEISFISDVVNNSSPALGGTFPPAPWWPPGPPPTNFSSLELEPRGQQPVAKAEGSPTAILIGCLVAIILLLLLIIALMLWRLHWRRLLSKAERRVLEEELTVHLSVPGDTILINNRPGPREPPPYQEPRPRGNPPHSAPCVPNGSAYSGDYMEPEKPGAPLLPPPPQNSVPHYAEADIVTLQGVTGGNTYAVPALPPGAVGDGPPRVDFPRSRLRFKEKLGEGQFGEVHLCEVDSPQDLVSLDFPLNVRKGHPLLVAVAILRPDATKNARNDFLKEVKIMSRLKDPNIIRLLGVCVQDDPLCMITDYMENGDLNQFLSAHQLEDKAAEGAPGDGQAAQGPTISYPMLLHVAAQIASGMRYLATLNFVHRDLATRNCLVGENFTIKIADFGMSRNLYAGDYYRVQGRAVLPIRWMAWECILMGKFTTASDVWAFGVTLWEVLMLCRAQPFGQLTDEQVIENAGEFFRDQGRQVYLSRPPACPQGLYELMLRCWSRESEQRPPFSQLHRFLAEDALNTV
UniProt P62993: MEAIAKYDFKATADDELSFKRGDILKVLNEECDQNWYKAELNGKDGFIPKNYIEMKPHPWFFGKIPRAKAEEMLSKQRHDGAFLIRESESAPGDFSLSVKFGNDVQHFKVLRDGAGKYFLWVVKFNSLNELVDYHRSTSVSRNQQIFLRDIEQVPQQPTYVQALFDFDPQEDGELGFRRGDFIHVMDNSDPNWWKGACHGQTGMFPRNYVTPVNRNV

Row | Substance | binding [1] | binding [2] | binding [3]
1 | flag-GRB2 (from UniProt P62993 1-217) | binds | binds | 
2 | Growth factor receptor bound protein 2 (GRB2), in cervical cancer cells (from UniProt P62993 1-217) |  |  | binds
